Results reported in paper PMC8528721.

By UniProt entry, the sequences of proteins in these tests, tags left out.
UniProt P53566, whole entry: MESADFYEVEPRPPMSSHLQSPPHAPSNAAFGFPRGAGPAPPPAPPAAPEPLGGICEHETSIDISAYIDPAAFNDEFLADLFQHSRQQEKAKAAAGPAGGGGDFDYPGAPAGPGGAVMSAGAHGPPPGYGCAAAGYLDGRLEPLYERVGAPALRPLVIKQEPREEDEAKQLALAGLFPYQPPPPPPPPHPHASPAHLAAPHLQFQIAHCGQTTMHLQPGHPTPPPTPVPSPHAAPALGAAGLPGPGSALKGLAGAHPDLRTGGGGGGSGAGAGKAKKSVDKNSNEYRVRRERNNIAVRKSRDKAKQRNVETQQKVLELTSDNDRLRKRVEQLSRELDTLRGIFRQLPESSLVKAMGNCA

Molecular target: His-CEBPα (UniProt P53566)
Test: EMSA
Settings: increasing GST-Hop2, dose-dependent loss of the CEBPα-DNA complex; EMSA: 5 pmol probe, room temperature, 10 min; salt and pH not given (refs 36, 55); recombinant protein; protein details: His; label: 32P

**Q.** Does “GATCTGCAGATTGCGCAATCTGCA / GATCTGCAGATTGCGCAATCTGCA [CEBP consensus palindrome probe]” bind?
**A.** binds more weakly

The exact form of at least one protein or probe is not confirmed. Weaker means in comparison with the reference protein, sequence or condition of that experiment.
